# Source: PMC9658052, “Virtual Screening and Biological Activity Evaluation of New Potent Inhibitors Targeting Hexokinase-II” (Molecules, 2022)
# How the values were obtained:
# Type in all cases: cell-based
# HeLa cells = assay: MTT cytotoxicity assay, HeLa; settings: Homo sapiens, 48 h, read-out: IC50 (toxicity) Hela
# Method: (§1) Initially, we adopted the MTT assay to screen the cytotoxicity of all compounds toward three different types of cancer cell lines (HeLa, HepG 2 and A549). […] The chemical structures of the selected compounds are depicted in Figure 2.
# (§2) HeLa, Hep G2, and A549 cells were purchased from the Shanghai Institute of Biochemistry and Cell Biology, Chinese Academy of Sciences. All cells were cultured in DMEM with 100 units/mL penicillin/streptomycin, 2 mM glutamine, and 10% FBS in a carbon dioxide atmosphere at 37 °C.
# (§3) Cytotoxicity was quantified using a standard MTT assay, which is widely used in evaluating cell proliferation and screening for anticancer drugs. Briefly, following 7 × 10^3 cells incubating in 96-well plates for 48 h filled with DMEM medium supplemented with 10% fetal bovine serum (FBS) containing different concentrations of samples, 10 μL/well of MTT (5 mg/mL) was added. After 4 h of incubation at 37 °C, 100 μL of extraction buffer containing 5% iso-butanol, 0.1% HCl, and 10% SDS was added, and then the cells were incubated overnight. As controls, cells were treated with 0.1% (v/v) DMSO alone. The cell viability was calculated by the absorbance (570 nm) of each well obtained using a microplate reader (Thermo Scientific Multiskan GO, Vantaa, Finland).
# HepG 2 cells = assay: MTT cytotoxicity assay, HepG 2; settings: Homo sapiens, HepG2, 48 h, read-out: IC50 (toxicity) HepG 2
# Method: as §1, §2, §3
# A549 cells = assay: MTT cytotoxicity assay, A549; settings: Homo sapiens, 48 h, read-out: IC50 (toxicity) A549
# Method: as §1, §2, §3
smiles,measurement,setting,value
CCN1CCC[C@H]1CNC(=O)c1ccc2c(c1)NC(=O)/C(=C\c1ccc(OC)c(OC)c1)S2 [K788-8853],IC50,HeLa cells,15.1 µM
same,IC50,HepG 2 cells,12 ± 0.5 µM
same,IC50,A549 cells,10.7 ± 0.5 µM
